Results published in patent publication US4880777A, “Synthetic peptides having growth hormone releasing activity” (Eastman Kodak Company, priority 1987, dated 1989).
Several values for one entry are separate records, joined by “and”; a condition that tells them apart may be missing. Equal values may be shown once. Part of at least one peptide drawing is inferred or uncertain, most often the ends.

Experiments:
growth hormone (GH) [1] = assay: In vivo synergistic effects on GH release in rats of combinations with Compound B (Group 3) and Compound C (Group 2)
Description: (§1) Immature female Sprague-Dawley rats were obtained from the Charles River Laboratories (Wilmington, Mass.). After arrival they were housed at 25° C. with 14:10 hour light:dark cycle. Water and Purina rat choow were availablle ad libitum. Pups were kept with their mothers until 21 days of age.
(§2) Normal saline with 0.1% gelatin was the vehicle for s.c. and i.v. injections of Compounds 1 and 2 . The unanesthetized rats, weighing 55-65 grams, were injected i.v. with 0.2 ml solution via the tail vein. All animals were sacrificed by quillotine 10 minutes after the final test injection unless specified otherwise. Trunk blood for growth hormone (GH) determinations was collected following decapitation. The blood was allowed to clot, centrifuged and the serum separated from the clot. Serum was kept frozen until the day of sampling for radioimmunoassay (RIA) of growth hormone levels according to the following procedure, as developed by the National Institute of Arthritis, Diabetes and Digestive and Kidney Diseases (NIADDK).
(§3) The mixed reagents are then typically incubated at room temperature (about 25° C.) for about 24 hours prior to addition of a second antibody (e.g., goat or rabbit anti-monkey gamma globulin serum) which binds to and cause precipitation of the complexed growth hormone antiserum. Precipitated contents of the RIA tubes are then analyzed for the number of counts in a specified period of time in a gamma scintillation counter. A standard curve is prepared by plotting number of radioactive counts as a function of growth hormone (GH) level. GH levels of unknowns are then determined by reference to the standard curve.
Serum GH was measured by RIA with reagents provided by the National Hormone and Pituitary Program. Serum levels are recorded in ng/ml in terms of the rat GH standard with 0.61 IU/mg. Data is recorded as the mean ± standard error of the mean (SEM). Statistical analysis was performed with student's t-test. […]

growth hormone (GH) [2] = assay: In vivo GH release in rats (serum GH by RIA, 10 minutes after i.v. injection); design: species or system Sprague-Dawley rats; conditions: immature female rats, serum GH 10 minutes after injection, mean ± SEM
Description: as §1, §2
Reagents are generally added to the RIA analysis tubes at a single sitting, at refrigerator temperature (about 4° C.) in the following sequence:
(b) "cold" (i.e., non-radioactive) standard or unknown serum sample to be analyzed,
(c) radio-iodinated growth hormone antigen, and
(d) growth hormone antiserum. […]
as §3, with “A standard curve is prepared by plotting number of radioactive counts as a function of growth hormone (GH) level.” left out
Serum GH was measured by RIA with reagents provided by the National Hormone and Pituitary Program. Serum levels are recorded in ng/ml in terms of the rat GH standard with 0.61 IU/mg. Data is recorded as the mean ± standard error of the mean (SEM). […]

For `CCCC[C@H](NC(=O)[C@@H](NC(=O)[C@H](CC(=O)O)NC(=O)[C@H](CCC(N)=O)NC(=O)[C@H](CC(C)C)NC(=O)[C@H](CC(C)C)NC(=O)[C@H](CCCCN)NC(=O)[C@H](CCCNC(=N)N)NC(=O)[C@H](C)NC(=O)[C@H](CO)NC(=O)[C@H](CC(C)C)NC(=O)[C@H](CCC(N)=O)NC(=O)CNC(=O)[C@H](CC(C)C)NC(=O)[C@@H](NC(=O)[C@H](CCCCN)NC(=O)[C@H](CCCNC(=N)N)NC(=O)[C@H](Cc1ccc(O)cc1)NC(=O)[C@H](CO)NC(=O)[C@H](CC(N)=O)NC(=O)[C@@H](NC(=O)[C@H](Cc1ccccc1)NC(=O)[C@@H](NC(=O)[C@H](C)NC(=O)[C@H](CC(=O)O)NC(=O)[C@H](C)NC(=O)[C@@H](N)Cc1ccc(O)cc1)[C@@H](C)CC)[C@@H](C)O)C(C)C)[C@@H](C)CC)C(=O)N[C@@H](CO)C(=O)N[C@@H](CCCNC(=N)N)C(N)=O` [Compound A, [Nle^27]-hGRF(1-29)-NH2, reference compound], the “GH Release by Compound in Column A” value (growth hormone (GH) [1]; dose 10, compound alone) was 115 ± 27 ng/mL and 103 ± 16 ng/mL and 94 ± 22 ng/mL and 131 ± 51 ng/mL, the “GH Release of Compound in Column A & 30 μg Compound B” value (growth hormone (GH) [1]; dose 10 of Column A compound combined with 30 μg Compound B) was 1803 ± 224 ng/mL and 1666 ± 137 ng/mL and 2332 ± 348 ng/mL and 1744 ± 200 ng/mL and the “GH Release of Compound in Column A & 30 μg Compound B & 10 μg Compound C” value (growth hormone (GH) [1]; dose 10 of Column A compound combined with 30 μg Compound B and 10 μg Compound C) was 4889 ± 721 ng/mL. The “GH Release” value (growth hormone (GH) [2]; 1 μg i.v.) was 64 ± 16 ng/mL, the “GH Release” value (growth hormone (GH) [2]; 3 μg i.v.) was 105 ± 23 ng/mL and the “GH Release” value (growth hormone (GH) [2]; 10 μg i.v.) was 114 ± 21 ng/mL.
